Measurements: US20190317095A1
No constants are given. Whether binding was seen depends on the method and setting. Some entries that bind do so weakly or less than the wild type.

The chains behind the UniProt entries cited, without tags or fusion partners. Residues count along the entry.
UniProt P60881, residues 1-197: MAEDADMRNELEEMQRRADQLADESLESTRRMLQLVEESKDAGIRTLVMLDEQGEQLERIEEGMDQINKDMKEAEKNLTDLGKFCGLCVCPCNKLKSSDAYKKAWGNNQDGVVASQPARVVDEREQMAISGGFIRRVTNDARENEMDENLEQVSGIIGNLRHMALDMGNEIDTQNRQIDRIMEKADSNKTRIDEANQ

Experiments:
[1] = molecular target: SNAP25197, BoNT/A-cleaved SNAP25 (rat) (rat) (UniProt P60881); assay: IHC, rat bladder treated with BOTOX (FIG. 8K-O)
[2] = molecular target: SNAP25197, BoNT/A-cleaved SNAP25 (rat) (rat) (UniProt P60881); assay: IHC, rat bladder treated with BOTOX (FIG. 8)
[3] = molecular target: SNAP25197, BoNT/A-cleaved SNAP25 (rat) (rat) (UniProt P60881); assay: IHC, rat bladder +/- BOTOX (FIG. 8)

Measured: binding

B1: original non-recombinant 3C1A5 mAb purified from ascites (antibody, V domains shown)
VH: QVKLQESGAELVKPGASVKISCKASGYTFTDHSIHWVKQKPGQGLEWIGYLFPGNGNFEYNEKFKGKATLTADKSSSTVYMYLNSLTSEDSAVYFCKRMGYWGQGTTVTVSS
VL: DVVMTQTPLTLSVTIGQPASISCKSSQSLLNTNGKTYLTWLIQRPGQSPQRLIYLVSKLDSGVPDRFSGSGSGTDFTLKISRVEAEDLGVYYCLQSSHFPFTFGSGTKLEIK
binds: all assays above
